Earlier results, collected in US12662465B2, “EGFR inhibitors” (Blueprint Medicines Corporation, priority 2021, dated 2026).
Some entries share one result that the patent states for a list of compounds.

Test system: EGFR M+ NSCLC patients
Details: EGFR M+ NSCLC patients treated first line (1L); cited from earlier work

## C=CC(=O)Nc1cc(Nc2nccc(-c3cn(C)c4ccccc34)n2)c(OC)cc1N(C)CCN(C)C [osimertinib]
  objective response rate (ORR): 60-85%
